# Experimental data: PubChem BioAssay AID1347426 (Functional Genomics Laboratory (NCATS/FGL), 2020)
# About 1,400 (4.5%) of roughly 31,000 sequences were called active.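 Rule for the calls: active = median seed-adjusted z-score above 1 or below -1; inactive = the rest.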 Some of the results follow.
# Experiment: Novel Modifiers of Survival Motor Neuron (SMN) Protein: Gene Identification via Genome-wide siRNA Screen;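 note: luminescence tracks full-length SMN protein made from the SMN2 reporter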
# Conditions: HEK293T SMN2-luciferase reporter, siRNA knockdown, 72 h; actives lie on both sides
# Method in brief: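 Luciferase signal, proportional to full-length SMN made from an SMN2 cDNA reporter in stable HEK293T cells, was read 72 h after siRNA reverse transfection. Values were expressed as MAD scores after non-targeting-control normalization and log10 conversion; seed analysis flagged off-targets.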
row,Sequence,median seed-adjusted z-score
1,AGAUAAAGCUAAGGAAGAATT against KHDRBS2,inactive: -0.335
2,CACCAGAAAUCAUAGACUUTT against GAK,inactive: 0.488
3,GCUGUUAACUACCACUGUATT against DAZL,inactive: -0.441
4,CGACUCGGCUCUUCCCUUUTT against DNASE1,inactive: -0.35
5,GAAUCGGGCAUUAUGGUAATT against CACNA2D1,inactive: -0.541
6,UCCUUUAACUCGACAGUCATT against DRG2,inactive: -0.175
7,CAGCAAACCUUUGACCAGATT against U2AF2,active: 2.14
8,UCUUCGUGGUGGACAGCAATT against ARF1,inactive: -0.371
9,GGUGAGCUCUGCAUGAAUATT against CLPS,inactive: -0.799
10,GCAGCAGAUUGAGCAGUCATT against PEX5,inactive: -0.0414
11,GCUCUAGCCUGUAAGUAUATT against PDHA1,inactive: 0.346
12,GGCAAGAGCUUGUAUCCAATT against CCNG1,inactive: 0.131
13,GGGAGUACAUCUACAUGCATT against KEAP1,inactive: 0.207
14,GUCUUCAUGUAUGUCUUUUTT against GJB1,inactive: 0.152
15,GAAUCCAGAUGACAGAUUATT against CDKL4,inactive: 0.13
16,CUCGAGAAAUUGUCACGUATT against DYNC1I2,inactive: -0.167
17,GGACUGCAGCUCAUACCUATT against OTX1,inactive: -0.475
18,AGAGAGAGCUUCAAAAUUATT against PPP1R14C,inactive: -0.316
19,CGUUGUUUUUGAGCACGUUTT against LMBR1,inactive: 0.236
20,GCCUAAUGAUGGAAAGAUUTT against ZNF643,inactive: -0.0134
21,CAAAGGAUAGCUUCUUUUUTT against RASL10B,inactive: -0.377
22,GCCUCAGACAAGAUUGAAATT against COX11,inactive: -0.317

# Another view of part of the listing above:
row	Sequence	median seed-adjusted z-score
7	CAGCAAACCUUUGACCAGATT against U2AF2	active: 2.14
10	GCAGCAGAUUGAGCAGUCATT against PEX5	inactive: -0.0414
13	GGGAGUACAUCUACAUGCATT against KEAP1	inactive: 0.207
18	AGAGAGAGCUUCAAAAUUATT against PPP1R14C	inactive: -0.316

# Next part:

row,Sequence,median seed-adjusted z-score
1,GGAAAAUCAUUGUGCUAAUTT against VN2R1P,inactive: -0.25
2,GAACAACCUUCAUUGGAAUTT against ZC3HC1,inactive: -0.859
3,AGAGAAAAACUGGACAAAATT against TFAP2A,inactive: -0.384
4,GGGCACCAGUGGUAAGACATT against NFKBIE,inactive: -0.452
5,GCUUUUACUUCUAAUCGAATT against ZNF660,inactive: 0.251
6,GCCUAUGAGUGUGAGAAGATT against ARID3B,inactive: -0.0846
7,GCUCCAUCCUCAAUGAGUATT against MPN2,inactive: 0.108
8,GGAGAUAUUUUUGACGGAATT against ZFHX3,inactive: 0.045
9,GCUUAAUGGUGUCCCGUAATT against PCCA,inactive: 0
10,GCUUGAUGCUGAACAACAATT against LRRN1,inactive: -0.407
11,GGAUGGGUCUCCUACUACATT against SLC40A1,inactive: -0.177
12,GGCAAAAGGUCAUCCCAGATT against CAPN5,inactive: 0.535
13,GCAUCUAUGUCAACAAGAUTT against POLR2I,active: -3.27
14,GCAGGCAACUAACACGGAATT against TPPP,inactive: -0.16
15,ACAAUCCAAUGAUACAGAATT against RNF113A,inactive: -0.128
16,GUCCGUGGGUGAUAAUUGATT against VWA1,inactive: 0.289
17,GAUCAAGCCUAAAGAUACATT against DAPK1,inactive: 0.27
18,GGGACAAUUUGCUAGCUUATT against SLC6A14,inactive: 0
19,GGAACAGACGAGUACAACATT against PRKCSH,inactive: -0.0512
20,AGAUGCAGAAUGUCAUGUATT against KCNN3,inactive: -0.625
21,GCAUGGACGUGAUUUUGGUTT against DNMT3L,inactive: 0.0651
22,CCUCCGCUGUGACCUUUGATT against NHLRC1,inactive: -0.582

row,Sequence,median seed-adjusted z-score
1,CAAGCAAGAGAUUAGUGAATT against ZNF436,inactive: 0.00767
2,CUUCAUAUCUUAAUAGUCATT against ZNF121,inactive: 0.0687
3,GAGCUGAGCUGUCGAUAUATT against SUPT6H,active: -2.54
4,CCAUCCCAAAUUUACAACATT against SARS2,inactive: 0.524
5,GCACCACAACUCUACUGUATT against ETNK1,inactive: 0.299
6,CUGAUAGGCCCAAAGCUGATT against CABP4,inactive: 0.146
7,AGACAAGAAGUGCAAGUCUTT against ART1,inactive: 0.0033
8,GACACGAUUCUUUACCAAATT against CHEK1,active: -5.1
9,GAACAUUGGUAAUUAAACUTT against PCDHA4,inactive: -0.268
10,CCAUCCUUACAUGAGCAUATT against MAPK6,inactive: -0.156
11,AGUCUACGAGAACUACUGATT against CHST11,inactive: -0.275
12,GAGUUGCGAUUAUCAGUCUTT against STX7,inactive: 0.251
13,CAUCCAAGAUUAUAGUGGATT against PNLIP,inactive: 0.385
14,GCACUUUACCACAAUCUCATT against FCAMR,inactive: 0.137
15,AUGUCUAGCAAAUCCAAAATT against GATA3,inactive: -0.197
16,UGGGUUGGAUGAUACCUUATT against GATA5,inactive: 0.15
17,GGCAAUUCUAAGUACCAGATT against GTF2B,inactive: -0.855
18,UCAUCGACUUGACCAACAATT against LCN9,inactive: -0.897
19,CAUCUGCAUUGAUAGCGUATT against CRIM1,inactive: -0.155
20,GAGAAACUAGAAUACAGAATT against ADPRH,inactive: -0.406
21,AGCUCGUACUGUUCCAAUATT against MMP19,inactive: 0.43
22,GGAGGGAUGGUUACUGUUATT against TOX4,inactive: 0

row,Sequence,median seed-adjusted z-score
1,CCGAGGAGCUGAUUCAGGATT against RABEP2,inactive: -0.0546
2,AGAGAGAAAUUGUGCGAGATT against ACTG2,inactive: 0.157
3,CAACAUUGGAAAAUACAGATT against LAP3,inactive: 0.0175
4,GGACUGAAAUACGAAAGUUTT against TBCEL,inactive: 0.567
5,CGGAAUACCAGGAACUUAATT against TSHR,inactive: 0.851
6,CGCUCAACGUGGAUCAUUUTT against CAMTA2,inactive: 0.152
7,GGAUGUGGUUUAUUAUACATT against SLC16A9,inactive: 0.125
8,ACAAGAUCCCGUUAAAGGATT against PI3,inactive: 0.493
9,GGAUAUUAAGGACAGGAAATT against RAN,active: -3.09
10,GAUCGACAACAACCCGUUUTT against TBX2,inactive: 0.42
11,CUGUCGCUGUCUGACCAGATT against ESRRA,inactive: -0.833
12,GGAAAGAAAUCACCUAAGATT against TBX19,inactive: 0.327
13,GCUUCUCGUUGGGUACCGUTT against ACTRT2,inactive: -0.117
14,CGAUGGAGAUGUUUCGGGATT against KCNA2,active: -1.03
15,GAGUUUUUAUGGACUCUCATT against GRIK4,inactive: 0.249
16,GCAGUAUGAGGGUCCCACATT against IL12RB1,inactive: -0.126
17,AGCUCAUCCUGAUGCUGAATT against JDP2,inactive: -0.202
18,GGCUCAUUCUACUCAGGGATT against BAHCC1,inactive: 0
19,CUGUGAAAAUGGGACGGGATT against NDUFA6,inactive: -0.457
20,CCGCAGUUCUAGGUCCAAUTT against ABCC2,inactive: -0.0464
21,GCACAAUUAUUUCACGCUUTT against ETNK2,inactive: -0.74
22,CACCCACCUCAGAUUGAUATT against MBTPS2,inactive: -0.324

row,Sequence,median seed-adjusted z-score
1,AACUUGUCGCUGCCCAAUATT against ABCA2,active: -1.18
2,GGAUACUUGUGGUUGACUUTT against ERCC4,inactive: -0.00878
3,CAACUUCGAUAAAGAGCUUTT against HSFX1,inactive: 0.0575
4,CAGCAACUGAAAUACGGAATT against RXFP1,inactive: 0.314
5,CGGUUUACUUUGCCGAAGATT against CSRP1,inactive: -0.312
6,GCCUCAUCGUUCUGCAGAATT against ZNF628,inactive: -0.121
7,CAAUCCAGCUAAUCCAGAATT against NRAS,inactive: -0.581
8,GGUCUGACUUGGUGGACAATT against CPEB1,inactive: -0.349
9,ACCGAAUGCUGGAUCUUUATT against ABAT,inactive: 0.0191
10,GGUUUUUGCUGGACAAACATT against PPP2R3C,inactive: 0.295
11,CACCUGAACUUAUUGUCUUTT against SCARA5,inactive: -0.278
12,GGACAUCUAUUGGACCGUUTT against GFRA3,inactive: -0.326
13,CGUGAUAGGGAGAACCGCATT against GPR97,inactive: -0.0155
14,CGUCAGUGCUUCGCAUACATT against ZBTB45,inactive: 0
15,AGACUAACAUUGACCGGCUTT against ACTN3,inactive: -0.109
16,AAAUGUCUAUUGCCGUAAATT against TUBA1C,inactive: 0.157
17,GGAGGGACAAGAUCAACAATT against USF2,inactive: 0.352
18,GGAUCAAUCUUCUCAGGCATT against NEUROD1,inactive: 0
19,GCCUAAAGCCGACAUUUAUTT against MOS,inactive: 0.105
